The experiment deals with T1, HMGA2 tagged C-terminally with MYC and HIS (WT HMGA2-MYC-HIS) (UniProt P52927).
T1 sequence: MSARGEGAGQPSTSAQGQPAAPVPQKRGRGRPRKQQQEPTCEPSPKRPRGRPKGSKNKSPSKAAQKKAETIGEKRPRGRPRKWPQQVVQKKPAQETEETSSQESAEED
As to the kind of experiment: co-IP; nuclear protein extracts (sonicated, soluble chromatin and proteins; 500 ug) from Hmga2-/- MEF non-transfected or stably transfected with Hmga2-myc-his; magnetic beads coated with MYC-specific antibodies, 2 h; Co-IP buffer 50 mM Tris-HCl pH 7.4, 170 mM NaCl, 0.1% Triton X-100; western blot for SUPT16, SSRP1, HIS-tag. (In general: A western blot detects proteins with antibodies after separation by electrophoresis.)

Amino acid sequences for entries named in this document (tags omitted). A change or cut given only in a name is not applied to a line headed by its entry.
UniProt Q920B9: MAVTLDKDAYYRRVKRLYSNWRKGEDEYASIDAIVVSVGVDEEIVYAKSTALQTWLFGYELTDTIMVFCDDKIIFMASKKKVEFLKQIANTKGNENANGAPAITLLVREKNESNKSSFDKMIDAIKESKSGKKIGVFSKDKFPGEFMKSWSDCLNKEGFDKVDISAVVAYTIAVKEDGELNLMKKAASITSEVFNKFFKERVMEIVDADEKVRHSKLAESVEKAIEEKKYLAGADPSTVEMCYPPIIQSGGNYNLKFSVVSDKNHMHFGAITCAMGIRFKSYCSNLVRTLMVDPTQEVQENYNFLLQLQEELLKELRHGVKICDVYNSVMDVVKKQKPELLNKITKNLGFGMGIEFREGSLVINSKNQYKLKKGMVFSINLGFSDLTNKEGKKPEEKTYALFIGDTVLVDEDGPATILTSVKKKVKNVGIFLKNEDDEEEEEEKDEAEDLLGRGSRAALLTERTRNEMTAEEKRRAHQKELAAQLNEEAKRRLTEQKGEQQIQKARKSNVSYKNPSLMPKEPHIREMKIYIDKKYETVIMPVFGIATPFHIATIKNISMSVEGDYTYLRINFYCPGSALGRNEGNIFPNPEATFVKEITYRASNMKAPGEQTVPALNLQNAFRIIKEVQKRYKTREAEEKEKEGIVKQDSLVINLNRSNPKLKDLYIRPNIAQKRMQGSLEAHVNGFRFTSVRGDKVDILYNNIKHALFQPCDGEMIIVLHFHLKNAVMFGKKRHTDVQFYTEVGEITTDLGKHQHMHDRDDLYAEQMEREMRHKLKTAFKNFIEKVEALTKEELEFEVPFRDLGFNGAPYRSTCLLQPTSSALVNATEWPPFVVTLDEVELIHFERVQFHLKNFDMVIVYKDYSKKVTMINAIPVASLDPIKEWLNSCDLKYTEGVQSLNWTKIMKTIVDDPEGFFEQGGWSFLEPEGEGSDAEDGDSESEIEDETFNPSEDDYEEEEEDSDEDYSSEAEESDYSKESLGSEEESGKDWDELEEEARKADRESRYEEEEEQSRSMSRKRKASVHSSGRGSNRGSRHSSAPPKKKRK

Results are given in words; binding and its absence hold for the method and conditions named. Binding seen in cells or lysates may run through a third protein. Some entries that bind do so weakly or less than the wild type. Tags and fused reporters may be left off the sequences shown.

With “FACT (facilitates chromatin transcription) complex, heterodimer of SUPT16 and SSRP1 (from UniProt Q920B9 1-1047; Q08943 1-708)”, the binding result is “binds”.

For the origin of these results see paper PMC7886895.
